Values quoted from earlier work as cited in patent US8748570B2, “Insulin analogues” (priority 2010, dated 2014).
Some entries share one result that the patent states for a list of compounds.

Conditions: in vivo

Row | Substance | onset of action [h]
1 | Glargine insulin: long-acting insulin: two arginines added to the B-chain C-terminus, glycine at A21 | 1 to 2
2 | Regular insulin | 0.5 to 1
